This passage reports binding results from article PMC3542428, “Functional Insights from the Crystal Structure of the N-Terminal Domain of the Prototypical Toll Receptor” (Structure(London, England:1993), 2013).

In this experiment the target is TollN13-VLR (Toll N-terminal region up to LRR13 fused to VLR B.61 residues 133-201) (Drosophila melanogaster | hagfish) (UniProt P08953+Q4G1L2). Briefly: SEC; gel filtration of the Toll-VLR constructs alone and mixed with Spz C-106 (TollN6-VLR and C-106 in equimolar concentrations); both purified. Background: SEC sorts molecules by how far they enter the pores of the column.

Results are given in words; binding and its absence hold for the method and conditions named. Tags and fused reporters may be left off the sequences shown.

B1: TollN13-VLR (Toll N-terminal region up to LRR13 fused to VLR B.61 residues 133-201) (domain or fragment, UniProt P08953 28-397; Q4G1L2 133-201)
chain: SFGRDACSEMSIDGLCQCAPIMSEYEIICPANAENPTFRLTIQPKDYVQIMCNLTDTTDYQQLPKKLRIGEVDRVQMRRCMLPGHTPIASILDYLGIVSPTTLIFESDNLGMNITRQHLDRLHGLKRFRFTTRRLTHIPANLLTDMRNLSHLELRANIEEMPSHLFDDLENLESIEFGSNKLRQMPRGIFGKMPKLKQLNLWSNQLHNLTKHDFEGATSVLGIDIHDNGIEQLPHDVFAHLTNVTDINLSANLFRSLPQGLFDHNKHLNEVRLMNNRVPLATLPSRLFANQPELQILRLRAELQSLPGDLFEHSTQITNISLGDNLLKTLPATLLEHQVNLLSLDLSNNRLTHLPDSLFAHTTNLTDLRLNQLKSVPDGIFDRLTSLQKIWLHTNPWDCSCPRIDYLSRWLNKNSQKEQGSAKCSGSGKPVRSIICPTT
With B1, the binding result is given as “no binding”.
